Assay results: doi:10.1101/2025.08.05.668837

Molecular target: FLAG-tagged Xenopus laevis RecQL4 wildtype (FLAG-HRV3C-xRecQL4) (Xenopus laevis)
Assay: co-IP

- binding: binds
B1: untagged Xenopus laevis Mcm10 (protein, UniProt Q5EAW4 1-860)
chain: MEVDADLELLTSLLEENEAAERNGVVSHEASSELDEFDELFDGDEDGSYHGSDNGTEEQTIGGVEEDFTTLFGDIDDIKEEEAAASDTKKQSSSVCQEKSKDELEDELRKMQAQMKKLQEQLQKTALAKTSSPGNPKKSPENKMVQSGKTSRTSPLIERKKTDSNTVAPQLTSPTVPKAKLPDAPKRKQNLSDKSPVQKKMASFLSPPEKSSARPGQSTATQPITNTLKSPVGQQYHVEKFSGLRIRKPRVSSSEMERKMNGRKLIRLAQLQNKIATEKLEEEDWVTFGVIVKKITPQSSNNGKTFSIWRLNDLKDLDKYISLFLFGDVHKEHWKTDQGTVIGLLNANPMKPKEGTDEVCLSVDNPQKVLLMGDAVDLGTCKARKKNGDPCTQMVNLNDCEYCQYHVQAQYKKVSSKRADLQSSYSGHVPKKMARGANGLRERLCQGGFHYGGVSSMAYAATLGSTTAPKKTVQSTLSNMVVRGAEAIALEARQKIAAAKNVVQTDEFKELMTLPTPGALNLKKHLSGVSPQANCGKEGQPIQSISASTLLKQQKQQMLNARKKRAEESQKRFLESTEKSEKSSTLTSSACSVFQSPKQGAEFPNAQKMATPKLGRGFAEGDDVLFFDISPPPAPKLSTSAEAKKLLAIQKLQAKGQTLAKTDPNSIKRKRGSSSEELVAQRVASHASTSPKSPDENEPAIKKHRDQLAYLESEEFQKILNAKSKHTGILKEAEVEIQEHYFDPLVKKEQLEEKMQSIREQSCRVVTCKTCKYTHFKPKETCVSENHDFHWHNGVKRFFKCPCGNRTISLDRLPKKHCSTCGLFKWERVGMLKEKTGPKLGGETLLPRGEEHGKFLNSLK

No constants are given. Whether binding was seen depends on the method and setting. In cells and extracts the contact can be indirect. Binding calls can cover weak binding; strength is not graded here. Tags and fused reporters may be left off the sequences shown.
